# The whole screen tested about 360,000 compounds, of which about 9,100 (2.5%) were called active. Inconclusive means that the source gave no clear call. Such entries were picked first, then a sample of the others. Cut-off read from the data, not from the text of the source: active = max response below about -50%; inconclusive = no clear call, values can overlap the other calls; inactive = above that.
# Protein sequences, listed by entry. Tags and fused reporters are not part of them.
# UniProt P35462, whole entry, looked up: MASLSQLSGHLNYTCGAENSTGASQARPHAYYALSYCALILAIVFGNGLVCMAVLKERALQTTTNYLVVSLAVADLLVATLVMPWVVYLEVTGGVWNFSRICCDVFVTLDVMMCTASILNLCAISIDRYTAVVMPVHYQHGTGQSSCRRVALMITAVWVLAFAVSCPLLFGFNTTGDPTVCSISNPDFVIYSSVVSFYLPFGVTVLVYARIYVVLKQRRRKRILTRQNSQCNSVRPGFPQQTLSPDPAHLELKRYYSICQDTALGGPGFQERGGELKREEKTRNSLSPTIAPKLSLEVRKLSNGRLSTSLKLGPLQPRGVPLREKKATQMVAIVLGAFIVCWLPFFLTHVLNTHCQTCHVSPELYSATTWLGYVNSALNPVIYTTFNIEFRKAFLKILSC
# Target: D(3) dopamine receptor (Homo sapiens) (UniProt P35462)
# Experiment: qHTS of D3 Dopamine Receptor Antagonist: qHTS
# Settings: D3R cells, DiscoveRx beta-arrestin luminescence, antagonist mode; active compounds read low
# How it was run: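 Cells plated overnight at 1500 cells/well, then exposed to library compounds with dopamine controls for 90 minutes at 37 degrees C. DiscoveRx reagent added for 30–60 minutes at room temperature; luminescence read, quantitative HTS format.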
# % is set by controls: 0 for no effect and ±100 for the full control effect.
row,SMILES,"max response, negative = inhibition"
1,COc1ccc(CN(C)CC(O)COc2ccc(-c3ccccc3)cc2)cc1OC (configuration not stated),inconclusive: -31.3%
2,CC(C)n1c(N)c(C#N)c2ccc([N+](=O)[O-])cc2c1=O,inconclusive: -30.6%
3,O=C(NCCCN1CCN(CCCNC(=O)c2ccc(F)cc2)CC1)c1ccc(F)cc1,inconclusive: -41.3%
4,CCn1c(C(=O)OC)cc2c1ccn2-c1ccc(F)cc1,active: -77.4%
5,CCCSc1nc(N)nc(-c2cccs2)c1C#N,inactive: 12.3%
6,OC(c1ccc2c(c1)OCO2)c1ncc(-c2ccccc2)[nH]1 (configuration not stated),inconclusive: -30.2%
7,CSc1c(-c2ccccc2)nc2ccc(Cl)cc2c1C(=O)O,inconclusive: -30.5%
8,c1ccc2c(c1)OCC(CNCC1COc3ccccc3O1)O2 (configuration not stated),active: -80.6%
9,COc1ccc(S(=O)(=O)N(C)C[C@H]2Oc3c(NC(=O)NC4CCCCC4)cccc3C(=O)N([C@H](C)CO)C[C@@H]2C)cc1,inconclusive: -34.8%
10,COc1cc(/C=N/n2c(C3CCCCC3)n[nH]c2=S)ccc1O,inconclusive: -41.3%
11,O=S(=O)(NCCn1ccc2ccccc21)c1ccccc1,inconclusive: -33.3%
12,Cc1ccc(S(=O)(=O)c2nc(-c3ccccc3Cl)oc2NCCCN2CCOCC2)cc1,active: -53.3%
13,Cc1cc(C)c2c(c1)/C(=C/C(=O)c1ccc(Br)s1)C(=O)N2,inconclusive: -37.3%
14,CCCCC1Cc2[nH]c(=S)[nH]c(=O)c2C(c2ccc3ccccc3c2)O1 (configuration not stated),inconclusive: -49.7%
15,O=C(CCC(=O)CCN1CCCCC1)CCN1CCCCC1,active: -66.7%
16,CC(OC(=O)C1CC(=O)N(Cc2ccccc2)C1)C(=O)Nc1ccc(F)cc1Cl (configuration not stated),inconclusive: -43.9%
17,CN(CC(O)COc1ccc(S(=O)(=O)N2CCOCC2)cc1)C1CCCCC1 (configuration not stated),inconclusive: -44.3%
18,O=C(Nc1ccc(Cl)cc1)c1ccc(-n2cccn2)c([N+](=O)[O-])c1,inconclusive: -33.5%
19,COC(=O)C(NC(=O)c1ccccc1C)(Nc1ncc(S(=O)(=O)c2ccc([N+](=O)[O-])cc2)s1)C(F)(F)F (configuration not stated),active: -77.4%
20,O=C(Nc1cccc2ccccc12)c1ccc(OC(=S)N2CCOCC2)cc1,inconclusive: -37.7%
21,O=c1ccc2c(-c3ccccc3S(=O)(=O)O)c3ccc(O)c(O)c3oc-2c1O,active: -93.3%
22,COc1ccc(C(CNC(=O)COc2ccc(Cl)c(C)c2)N2CCCCC2)cc1 (configuration not stated),active: -95.3%

row,SMILES,"max response, negative = inhibition"
1,COc1ccccc1CNC(=O)c1cnccn1,inactive: -20.8%
2,COCCN(C(=O)CSc1nnc(C)n1-c1ccccc1)c1c(N)n(Cc2ccccc2)c(=O)[nH]c1=O,inconclusive: -32.8%
3,COc1cccc(NC(=O)CCN2C(=O)c3ccc([N+](=O)[O-])cc3C2=O)c1,inconclusive: -30.9%
4,O=C(O)COc1ccc(/C=C/C(=O)c2ccc(C3CCCCC3)cc2)cc1,inconclusive: -35%
5,O=C1CCN(Cc2ccccc2)CCN1[C@H](COc1ccccc1)Cc1ccccc1,inconclusive: -30.7%
6,O=C(/C=C/Nc1ccc(Br)cn1)c1cccc(OC(F)F)c1,inconclusive: -46.8%
7,Cc1ccc(C(=O)NCCN2CCOCC2)cc1,inconclusive: -45.3%
8,Cc1ccc(-n2nnnc2SCC(=O)N2CCc3ccccc3C2)cc1,inconclusive: -30.2%
9,COc1ccc(S(=O)(=O)N(C)C[C@H]2Oc3ccc(NC(=O)NC(C)C)cc3C(=O)N([C@H](C)CO)C[C@@H]2C)cc1,inconclusive: -34.6%
10,CCN(CC)c1ccc(/C=N/NC(=O)c2cnccn2)c(O)c1,active: -57.7%
11,COc1ccccc1C(=O)Nc1ccnn1C1CCN(CCCc2ccccc2)CC1,inconclusive: -48.4%
12,CCCCNC(=O)Cn1nc(-c2ccc(C)cc2)ccc1=O,inconclusive: -34.4%
13,COc1ccccc1NS(=O)(=O)c1ccc(C)c(C(=O)NC2CCN(Cc3ccccc3)CC2)c1,inconclusive: -39.9%
14,Cc1ccc(C23CC4CC(CC(NC(=O)NCCN(C)C)(C4)C2)C3)cc1,inconclusive: -36.4%
15,CC(CCCC(C)(C)O)NCc1cn[nH]c1-c1ccc2c(c1)OCO2 (configuration not stated),inconclusive: -40.3%
16,Cc1cc(NC(=O)CSc2nc3cc(Cl)ccc3s2)no1,inconclusive: -32.5%
17,C=CCOc1c(Br)cc(CNn2cn[nH]c2=S)cc1OC,inconclusive: -32.5%
18,O=C1c2ccccc2C(=O)N1CC(O)COc1ccccc1Cl (configuration not stated),inactive: -18.7%
19,O=C(O)c1cccc(NS(=O)(=O)c2ccc3c(c2)OCCCO3)c1,inactive: 20.3%
20,Cc1nccn1-c1ccc(NC(=O)[C@H]2O[C@@H](n3cnc4c(N)ncnc43)[C@H](O)[C@@H]2O)cc1,inactive: 9.64%
21,COc1cccc(CNCc2ccc(OC)c3ccccc23)c1OC,inactive: 3.35%
22,CCCCn1c(N)c(N(CC(C)C)C(=O)CN(C)Cc2cccc(OC)c2)c(=O)[nH]c1=O,inactive: 13%

row,SMILES,"max response, negative = inhibition"
1,O=C1C2CCCCN2C(=O)N1CCCCN1CCN(c2cccc(Br)c2)CC1 (configuration not stated),active: -80.1%
2,CC1CCN(S(=O)(=O)c2ccc(N/N=C(/C#N)C(N)=O)cc2)CC1,inconclusive: -40.9%
3,Cc1ccc2occ(/C=N/NC(=O)c3ccncc3)c(=O)c2c1,inactive: 4.26%
4,CN(C)S(=O)(=O)c1ccc(NS(=O)(=O)/C=C/c2ccccc2)cc1,inconclusive: -38.8%
5,O=C(C1=NN[C@@H]2C(=O)N(Cc3ccccc3)C(=O)[C@H]12)c1ccc([N+](=O)[O-])cc1,inconclusive: -31.1%
6,COc1ccc(/C=N/NC(=O)c2cccnc2)cc1CN1CCc2ccccc2C1,inconclusive: -49.4%
7,CSc1ccc(/C=N/N2CCN(Cc3ccc(C)cc3C)CC2)cc1,inconclusive: -33.3%
8,Cc1cc(NC(=O)c2cccs2)n(-c2nc3ccccc3[nH]2)n1,inactive: 14.5%
9,C=CCC[C@H](CCCCC)OC(=O)/C=C/[C@@H](O)[C@H](O)C[C@@H](O)CC=C,inactive: -2.42%
10,CCCCC(c1nc2ccccc2[nH]1)n1c(-c2ccccc2)nc2cc(C)c(C)cc21 (configuration not stated),inconclusive: -32.8%
11,Cc1nccc(-c2ccc(-n3c(C)ccc3C)cc2)n1,inconclusive: -30.7%
12,COc1ccccc1N1CCN(C(=O)CN2C(=O)C3CCCCC3C2=O)CC1 (configuration not stated),inactive: -16.3%
13,CC(C)CNC(=O)C1(C)CCCN1C(=O)CSc1ccccc1 (configuration not stated),inconclusive: -38.8%
14,COc1ccc(C2=NOC(C)(c3nnc(-c4ccc(F)cc4)o3)C2)cc1 (configuration not stated),inactive: -15.1%
15,Cc1ccn2cc(-c3cccc(NC(=O)CCC(=O)O)c3)nc2c1,inactive: 4.74%
16,CC1=CN(S(=O)(=O)c2ccc(C)cc2)C[C@@H]2[C@H]3CC[C@H](C3)[C@H]12,active: -65%
17,CC(Oc1ccccc1)C(=O)N1CCN=C1SCc1ccccc1F (configuration not stated),inactive: 11.3%
18,Cc1cc(O)c(Oc2cc(C)cc(O)c2O)c(O)c1,inactive: -7.58%
19,CN(C)c1cc[n+](CC(=O)Nc2ccc([N+](=O)[O-])cc2Cl)cc1,inconclusive: -46.8%
20,C/C(N)=C(/C#N)C(=O)CSc1nnnn1-c1ccc(C)cc1C,inactive: 6.23%
21,Cn1cc(C(c2ccccn2)c2cn(C)c3ccccc23)c2ccccc21,inconclusive: -40.8%
22,CCCOc1ccc(F)cc1-c1cc(C(=O)Nc2ccc(F)cc2)[nH]n1,inactive: 12.6%

row,SMILES,"max response, negative = inhibition"
1,O=C(c1ccccc1F)N1CCN(Cc2cccc(Cl)c2)CC1,inconclusive: -42.2%
2,Cc1cc(/C=N/NC(N)=S)c(C)n1-c1ccc(Cl)cc1,active: -57.6%
3,CCCCOc1ccc(/C=N/NC(=O)c2nnn(-c3nonc3N)c2CN2CCCCCC2)cc1,inactive: 22.6%
4,COc1ccc(NC(=O)CN(C)CC(=O)N(C)C2(C#N)CCC(C)CC2)cc1 (configuration not stated),active: -50.4%
5,COc1cc(C2C=C(C34CC5CC(CC(C5)C3)C4)NC(=S)N2)cc(OC)c1OC (configuration not stated),active: -81.7%
6,C=C1CCC[C@]2(C)C[C@H]3OC(=O)C(CNCC(C)C)[C@H]3CC12 (some centres not stated),inconclusive: -34.5%
7,CCN(CC)S(=O)(=O)c1cccc(-c2n[nH]c(=S)n2/N=C/c2ccc(Br)cc2)c1,active: -54.4%
8,O=C(O)CSc1nc(-c2ccccc2)nc2c1oc1ccccc12,inconclusive: -32.7%
9,Cc1nc(C(F)(F)F)ccc1C(=O)N1CCCC1(C)C(=O)NCC(C)C (configuration not stated),inactive: 0%
10,O=[N+]([O-])c1cc(/C=N/Nc2nc3ccccc3[nH]2)c(O)cc1O,active: -65.4%
11,CC(NS(=O)(=O)c1ccc(OCC(=O)NCc2ccncc2)cc1)c1ccccc1 (configuration not stated),inactive: 14.8%
12,CCC1Oc2ccccc2N(CC(=O)NCCCN2CCOCC2)C1=O (configuration not stated),inconclusive: -33.1%
13,CCOc1cc(C(=O)OCc2cccc(OC)c2OC)ccc1OCC(=O)N1CCOCC1,inactive: -5.06%
14,COc1cc(C(F)(F)F)c(C(=O)N(C)Cc2cccc(Cl)c2)cn1,inactive: 2.81%
15,Cc1ccc(C(=O)O)cc1NC(=S)NC(=O)c1ccc([N+](=O)[O-])cc1Cl,inconclusive: -47.2%
16,CCOC(=O)C1(CCOc2ccccc2)CCN(Cc2ccc(C)o2)CC1,inconclusive: -41.1%
17,O=C(CNC(=O)c1ccccc1F)NNC(=O)c1ccccc1O,active: -59.5%
18,Cc1ccc(NC(=S)NNC(=O)c2ccccc2O)c(C)c1,inactive: 21%
19,Cc1ccnc(NS(=O)(=O)c2cccc3nsnc23)c1,inconclusive: -34.5%
20,Cc1cc(C)nc(Nc2nc(C(N)Cc3ccccc3)cs2)n1 (configuration not stated),inconclusive: -31.1%
21,CCC(=O)n1nc(-c2cccnc2)nc1NCc1cccs1,inactive: -17.6%

# Seven entries from above, set out differently.
row | SMILES | max response, negative = inhibition
7 | CCN(CC)S(=O)(=O)c1cccc(-c2n[nH]c(=S)n2/N=C/c2ccc(Br)cc2)c1 | active: -54.4%
8 | O=C(O)CSc1nc(-c2ccccc2)nc2c1oc1ccccc12 | inconclusive: -32.7%
9 | Cc1nc(C(F)(F)F)ccc1C(=O)N1CCCC1(C)C(=O)NCC(C)C (configuration not stated) | inactive: 0%
10 | O=[N+]([O-])c1cc(/C=N/Nc2nc3ccccc3[nH]2)c(O)cc1O | active: -65.4%
11 | CC(NS(=O)(=O)c1ccc(OCC(=O)NCc2ccncc2)cc1)c1ccccc1 (configuration not stated) | inactive: 14.8%
12 | CCC1Oc2ccccc2N(CC(=O)NCCCN2CCOCC2)C1=O (configuration not stated) | inconclusive: -33.1%
13 | CCOc1cc(C(=O)OCc2cccc(OC)c2OC)ccc1OCC(=O)N1CCOCC1 | inactive: -5.06%
